For 1 substance, binding results are on record in publication PMC10794344.

The chains behind the UniProt entries cited, without tags or fusion partners.
UniProt P42224: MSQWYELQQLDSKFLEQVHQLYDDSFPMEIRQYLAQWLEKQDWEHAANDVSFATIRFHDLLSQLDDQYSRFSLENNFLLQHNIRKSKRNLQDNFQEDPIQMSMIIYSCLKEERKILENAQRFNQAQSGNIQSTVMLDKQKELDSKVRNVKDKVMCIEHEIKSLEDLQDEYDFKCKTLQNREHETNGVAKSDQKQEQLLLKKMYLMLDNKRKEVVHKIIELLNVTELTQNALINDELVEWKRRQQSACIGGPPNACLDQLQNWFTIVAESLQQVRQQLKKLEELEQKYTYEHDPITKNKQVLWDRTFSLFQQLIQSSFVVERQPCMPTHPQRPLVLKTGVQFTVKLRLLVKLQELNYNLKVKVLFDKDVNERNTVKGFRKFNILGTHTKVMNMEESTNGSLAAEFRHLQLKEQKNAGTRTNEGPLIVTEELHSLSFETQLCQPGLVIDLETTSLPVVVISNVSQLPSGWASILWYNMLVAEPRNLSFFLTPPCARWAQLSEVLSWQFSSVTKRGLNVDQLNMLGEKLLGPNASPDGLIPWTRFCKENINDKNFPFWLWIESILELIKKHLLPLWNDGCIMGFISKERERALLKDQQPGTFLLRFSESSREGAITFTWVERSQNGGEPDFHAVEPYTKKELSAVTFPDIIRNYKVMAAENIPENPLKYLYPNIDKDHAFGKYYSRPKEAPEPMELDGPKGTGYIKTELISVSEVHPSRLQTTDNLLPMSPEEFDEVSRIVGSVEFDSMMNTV
UniProt Q9UBN7: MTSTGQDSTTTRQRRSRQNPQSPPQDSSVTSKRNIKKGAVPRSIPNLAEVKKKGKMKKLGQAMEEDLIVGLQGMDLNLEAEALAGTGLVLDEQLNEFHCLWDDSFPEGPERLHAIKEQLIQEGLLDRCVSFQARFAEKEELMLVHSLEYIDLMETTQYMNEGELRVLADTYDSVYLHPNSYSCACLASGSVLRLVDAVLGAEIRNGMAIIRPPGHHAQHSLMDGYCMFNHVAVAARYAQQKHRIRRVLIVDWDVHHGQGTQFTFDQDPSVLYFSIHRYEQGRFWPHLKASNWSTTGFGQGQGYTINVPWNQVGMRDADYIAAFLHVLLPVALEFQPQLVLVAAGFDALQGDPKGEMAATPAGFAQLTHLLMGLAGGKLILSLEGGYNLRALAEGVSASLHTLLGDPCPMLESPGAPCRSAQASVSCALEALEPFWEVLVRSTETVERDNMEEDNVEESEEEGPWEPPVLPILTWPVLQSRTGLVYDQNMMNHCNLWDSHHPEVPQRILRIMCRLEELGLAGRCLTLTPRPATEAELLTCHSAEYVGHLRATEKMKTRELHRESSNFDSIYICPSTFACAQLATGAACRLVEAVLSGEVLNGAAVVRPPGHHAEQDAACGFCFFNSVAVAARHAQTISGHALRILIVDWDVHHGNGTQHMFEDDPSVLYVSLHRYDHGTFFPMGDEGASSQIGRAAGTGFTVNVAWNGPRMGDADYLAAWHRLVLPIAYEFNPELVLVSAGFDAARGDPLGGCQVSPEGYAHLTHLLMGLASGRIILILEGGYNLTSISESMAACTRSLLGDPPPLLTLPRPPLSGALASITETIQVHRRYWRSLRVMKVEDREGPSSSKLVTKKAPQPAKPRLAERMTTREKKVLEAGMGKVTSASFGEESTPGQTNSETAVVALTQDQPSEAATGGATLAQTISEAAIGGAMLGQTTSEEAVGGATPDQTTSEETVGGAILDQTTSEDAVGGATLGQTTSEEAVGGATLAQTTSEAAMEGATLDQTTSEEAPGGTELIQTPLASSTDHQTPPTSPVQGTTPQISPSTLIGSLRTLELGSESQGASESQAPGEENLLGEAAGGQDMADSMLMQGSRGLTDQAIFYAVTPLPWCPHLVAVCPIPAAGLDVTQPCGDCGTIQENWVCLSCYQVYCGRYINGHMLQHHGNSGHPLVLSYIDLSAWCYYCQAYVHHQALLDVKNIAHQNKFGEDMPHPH

These are yes or no findings as the source states them, for the method shown. Binding seen in cells or lysates may run through a third protein. Some binding calls cover weakened binding; strength is not graded here.

This experiment has as its target STAT1 (human (endogenous in HCT116)) (UniProt P42224). Nature of the experiment: co-IP; endogenous co-IP from HCT116 cell lysates; 2 µg antibody at 4 °C overnight, Protein A/G-Sepharose beads 2 h at 4 °C, washed three times with PBST; for STAT1 with NF-κB p65 (Fig. 5D) cells were pretreated with 20 ng/mL IFN-γ and then treated with ACY-1215 (0, 2.5, 5.0 µM).

In the case of “Histone deacetylase 6 (HDAC6) (from UniProt Q9UBN7 1-1215) (enzyme)”, the binding result is recorded as “binds”.
